# Source: PubChem BioAssay AID743121 (NCATS, 2013)
# Purpose: 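Knock-downs that sensitise breast cancer cells to camptothecin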 (primary screen)
# System: MDA-MB-231 cells, a human breast cancer line
# Reagent: single siRNA against human genes, 20 nM siRNA (0.8 pmol per well)
# Duration: 120 h (drug added 48 h after transfection, read 72 h later)
# Conditions: camptothecin 20 nM (about EC30) for 72 h; vehicle 0.1% DMSO in parallel plates
# Measurement: 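CellTiter-Glo ATP signal, scaled to control siRNA as percent viability; sensitisation given as log2 of untreated divided by camptothecin-treated viability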
# Direction: log2 vehicle/camptothecin viability: higher = stronger sensitisation to camptothecin; viability with camptothecin and viability without drug: higher = more viable cells
# Active means: 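Active genes have an RSA gene-level p-value below 0.001, computed from the ratios of their separate siRNAs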
# The whole screen tested about 26,000 reagents; shown is a random part of them. 167 of all reagents (0.63%) were called active. 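Calls are per gene from RSA p-values that are not deposited; an individual active-marked siRNA can sensitise only weakly.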 Entries without a mark were called inactive. Reagents against one gene are numbered here.
target gene,siRNA no.,log2 vehicle/camptothecin viability,viability with camptothecin (% of control),viability without drug (% of control)
PTPRC (protein tyrosine phosphatase receptor type C),1,-0.0299,124,121
PTPRC (protein tyrosine phosphatase receptor type C),2,-0.0713,108,103
PTPRC (protein tyrosine phosphatase receptor type C),3,0.102,105,112
PTPRC (protein tyrosine phosphatase receptor type C),4,-0.0991,52.2,48.7
GPR153 (G protein-coupled receptor 153),1,-0.745,51.7,30.8
GPR153 (G protein-coupled receptor 153),2,-0.246,78.7,66.4
GPR153 (G protein-coupled receptor 153),3,0.224,45.6,53.3
GPR153 (G protein-coupled receptor 153),4,-0.202,108,94.1
PRKAR1B (protein kinase cAMP-dependent type I regulatory subunit beta),1,-0.0886,94.9,89.3
PRKAR1B (protein kinase cAMP-dependent type I regulatory subunit beta),2,-0.314,68.2,54.9
PRKAR1B (protein kinase cAMP-dependent type I regulatory subunit beta),3,-0.36,106,82.9
PRKAR1B (protein kinase cAMP-dependent type I regulatory subunit beta),4,-0.401,97.2,73.6
"REL (REL proto-oncogene, NF-kB subunit)",1,0.269,82,98.8
"REL (REL proto-oncogene, NF-kB subunit)",2,-0.728,67.6,40.8
"REL (REL proto-oncogene, NF-kB subunit)",3,-0.966,73.5,37.6
"REL (REL proto-oncogene, NF-kB subunit)",4,-0.109,74.4,69
CCL28 (C-C motif chemokine ligand 28),1,-0.0102,84.7,84.1
CCL28 (C-C motif chemokine ligand 28),2,-0.414,99.6,74.7
CCL28 (C-C motif chemokine ligand 28),3,-0.0458,109,106
SLC9A5,1,-0.182,60.8,53.6
SLC9A5,2,-0.0135,89.4,88.6
SLC9A5,3,-0.15,93.6,84.3
SLC9A5,4,-0.917,40.4,21.4
TMEM147 (transmembrane protein 147),1,-0.329,79,62.9
TMEM147 (transmembrane protein 147),2,-0.0806,56.8,53.7
TMEM147 (transmembrane protein 147),3,-0.56,117,79.7
TMEM147 (transmembrane protein 147),4,-0.287,110,89.9
LRP2 (LDL receptor related protein 2),1,-0.468,89.9,65
LRP2 (LDL receptor related protein 2),2,-0.304,96.4,78.1
LRP2 (LDL receptor related protein 2),3,-0.125,89.7,82.2
LRP2 (LDL receptor related protein 2),4,-0.078,91.5,86.7
KDELR3 (KDEL endoplasmic reticulum protein retention receptor 3),1,-0.227,86.2,73.6
KDELR3 (KDEL endoplasmic reticulum protein retention receptor 3),2,-0.0833,79.9,75.4
KDELR3 (KDEL endoplasmic reticulum protein retention receptor 3),3,0.124,65.3,71.1
KDELR3 (KDEL endoplasmic reticulum protein retention receptor 3),4,-0.179,105,92.6
CRYGC (crystallin gamma C),1,0.45,46.1,62.9
CRYGC (crystallin gamma C),2,-0.348,78.3,61.5
CRYGC (crystallin gamma C),3,-0.0282,89.3,87.6
CLUH (CLUH binding protein of NUMT mRNA),1,0.486,56.2,78.8
CLUH (CLUH binding protein of NUMT mRNA),2,0.293,54,66.2
CLUH (CLUH binding protein of NUMT mRNA),3,-0.199,61.7,53.8
CLUH (CLUH binding protein of NUMT mRNA),4,-0.623,3.05,1.98
SLC3A1,1,-0.274,74,61.2
SLC3A1,2,0.224,77.1,90.1
SLC3A1,3,-0.354,40.1,31.4
SLC3A1,4,-0.0759,84.1,79.8
RNF2 (ring finger protein 2),1,0.0696,85,89.2
RNF2 (ring finger protein 2),2,-0.34,63.5,50.2
RNF2 (ring finger protein 2),3,-0.348,105,82.7
RNF2 (ring finger protein 2),4,0.195,81.9,93.7
RSPRY1 (ring finger and SPRY domain containing 1),1,-0.0917,112,105
RSPRY1 (ring finger and SPRY domain containing 1),2,-0.077,60.6,57.5
RSPRY1 (ring finger and SPRY domain containing 1),3,0.0353,97.5,99.9
LIFR (LIF receptor subunit alpha),1,-0.276,64.9,53.6
LIFR (LIF receptor subunit alpha),2,-0.0428,108,105
LIFR (LIF receptor subunit alpha),3,-0.207,65.8,57
LIFR (LIF receptor subunit alpha),4,0.214,25.5,29.6
PRKCG (protein kinase C gamma),1,0.0117,88.9,89.6
PRKCG (protein kinase C gamma),2,0.0584,47.1,49.1
PRKCG (protein kinase C gamma),3,-0.462,107,77.3
PRKCG (protein kinase C gamma),4,-0.168,55.7,49.5
"FURIN (furin, paired basic amino acid cleaving enzyme)",1,0.204,27.8,32
"FURIN (furin, paired basic amino acid cleaving enzyme)",2,0.245,56.8,67.3
"FURIN (furin, paired basic amino acid cleaving enzyme)",3,0.148,31.7,35.2
ABCA5 (ATP binding cassette subfamily A member 5),1,-0.207,114,98.5
ABCA5 (ATP binding cassette subfamily A member 5),2,-0.198,106,92.5
ABCA5 (ATP binding cassette subfamily A member 5),3,-0.301,70.6,57.3
ABCA5 (ATP binding cassette subfamily A member 5),4,-0.186,60.5,53.2
NDC80 (NDC80 kinetochore complex component),1,-0.545,36.5,25
NDC80 (NDC80 kinetochore complex component),2,0.45,33.6,45.8
NDC80 (NDC80 kinetochore complex component),3,-0.0799,21.9,20.7
NDC80 (NDC80 kinetochore complex component),4,-0.493,29.8,21.1
PITPNM2 (phosphatidylinositol transfer protein membrane associated 2),1,-0.218,38.2,32.8
PITPNM2 (phosphatidylinositol transfer protein membrane associated 2),2,0.32,59.2,73.9
PITPNM2 (phosphatidylinositol transfer protein membrane associated 2),3,-0.0271,74.5,73.1
PITPNM2 (phosphatidylinositol transfer protein membrane associated 2),4,0.017,46.1,46.6
CXXC1 (CXXC finger protein 1),1,-0.111,59.6,55.2
CXXC1 (CXXC finger protein 1),2,-0.177,114,100
CXXC1 (CXXC finger protein 1),3,0.662,10.9,17.2
CETN3 (centrin 3),1,-0.203,109,95
CETN3 (centrin 3),2,-0.0113,95.1,94.4
CETN3 (centrin 3),3,-0.297,137,111
CETN3 (centrin 3),4,0.302,71,87.5
EFEMP2 (EGF-like fibulin extracellular matrix protein 2),1,-0.358,44.8,34.9
EFEMP2 (EGF-like fibulin extracellular matrix protein 2),2,0.0444,82.5,85.1
EFEMP2 (EGF-like fibulin extracellular matrix protein 2),3,0.0172,89.4,90.5
EFEMP2 (EGF-like fibulin extracellular matrix protein 2),4,-0.276,100,83

Laid out differently: entries from further up
{"target gene":"FURIN (furin, paired basic amino acid cleaving enzyme)","siRNA no.":3,"log2 vehicle/camptothecin viability":0.148,"viability with camptothecin (% of control)":31.7,"viability without drug (% of control)":35.2}
{"target gene":"ABCA5 (ATP binding cassette subfamily A member 5)","siRNA no.":1,"log2 vehicle/camptothecin viability":-0.207,"viability with camptothecin (% of control)":114,"viability without drug (% of control)":98.5}
{"target gene":"ABCA5 (ATP binding cassette subfamily A member 5)","siRNA no.":2,"log2 vehicle/camptothecin viability":-0.198,"viability with camptothecin (% of control)":106,"viability without drug (% of control)":92.5}
{"target gene":"ABCA5 (ATP binding cassette subfamily A member 5)","siRNA no.":3,"log2 vehicle/camptothecin viability":-0.301,"viability with camptothecin (% of control)":70.6,"viability without drug (% of control)":57.3}
